According to patent US20250223580A1:
No constants are given. Whether binding was seen depends on the method and setting. A result given as binding can be weak or reduced; the word gives no strength. Where a sequence is shown, tags or fusion partners need not be part of it. For some assays here: Binding seen in cells or lysates may run through a third protein.

Tests used:
[1] = molecular target: Cas7-11 from Desulfonema ishimotonii (Desulfonema ishimotonii); assay: tandem affinity co-purification from E. coli (Strep-Tactin on Cas7-11, Ni-NTA on Csx29)
[2] = molecular target: Cas7-11 from Desulfonema ishimotonii (Desulfonema ishimotonii); assay: tandem affinity co-purification of the Cas7-11-Csx29 complex, SDS-PAGE stained with Coomassie
[3] = molecular target: Cas7-11 from Desulfonema ishimotonii (Desulfonema ishimotonii); assay: tandem affinity co-purification (Streptactin on the Cas7-11 tag, then Ni-NTA on the Csx29 tag) with crRNA coexpressed, SDS-PAGE stained with Coomassie
[4] = molecular target: Cas7-11 from Desulfonema ishimotonii (Desulfonema ishimotonii); assay: tandem affinity co-purification from E. coli
[5] = molecular target: dCas7-11 (Cas7-11 D429A/D654A) as it stands in the cryo-EM complexes (Desulfonema ishimotonii); assay: single particle cryo-EM

Measured: binding

B1: Csx29 (TPR-CHAT protease) from Desulfonema ishimotonii, 6xHis-tagged (enzyme, not shown: small tags and cut ends)
chain: MSNPIRDIQDRLKTAKFDNKDDMMNLASSLYKYEKQLMDSSEATLCQQGLSNRPNSFSQLSQFRDSDIQSKAGGQTGKFWQNEYEACKNFQTHKERRETLEQIIRFLQNGAEEKDADDLLLKTLARAYFHRGLLYRPKGFSVPARKVEAMKKAIAYCEIILDKNEEESEALRIWLYAAMELRRCGEEYPENFAEKLFYLANDGFISELYDIRLFLEYTEREEDNNFLDMILQENQDRERLFELCLYKARACFHLNQLNDVRIYGESAIDNAPGAFADPFWDELVEFIRMLRNKKSELWKEIAIKAWDKCREKEMKVGNNIYLSWYWARQRELYDLAFMAQDGIEKKTRIADSLKSRTTLRIQELNELRKDAHRKQNRRLEDKLDRIIEQENEARDGAYLRRNPPCFTGGKREEIPFARLPQNWIAVHFYLNELESHEGGKGGHALIYDPQKAEKDQWQDKSFDYKELHRKFLEWQENYILNEEGSADFLVTLCREIEKAMPFLFKSEVIPEDRPVLWIPHGFLHRLPLHAAMKSGNNSNIEIFWERHASRYLPAWHLFDPAPYSREESSTLLKNFEEYDFQNLENGEIEVYAPSSPKKVKEAIRENPAILLLLCHGEADMTNPFRSCLKLKNKDMTIFDLLTVEDVRLSGSRILLGACESDMVPPLEFSVDEHLSVSGAFLSHKAGEIVAGLWTVDSEKVDECYSYLVEEKDFLRNLQEWQMAETENFRSENDSSLFYKIAPFRIIGFPAE
binds: all assays above
